In US20240368253A1:
No constants are given. Whether binding was seen depends on the method and setting. Some binding calls cover weakened binding; strength is not graded here.

Protein sequences, listed by entry. Tags and fused reporters are not part of them. Lines headed by an entry give the natural chain unless they say otherwise; changes in a name come on top.
UniProt P08648: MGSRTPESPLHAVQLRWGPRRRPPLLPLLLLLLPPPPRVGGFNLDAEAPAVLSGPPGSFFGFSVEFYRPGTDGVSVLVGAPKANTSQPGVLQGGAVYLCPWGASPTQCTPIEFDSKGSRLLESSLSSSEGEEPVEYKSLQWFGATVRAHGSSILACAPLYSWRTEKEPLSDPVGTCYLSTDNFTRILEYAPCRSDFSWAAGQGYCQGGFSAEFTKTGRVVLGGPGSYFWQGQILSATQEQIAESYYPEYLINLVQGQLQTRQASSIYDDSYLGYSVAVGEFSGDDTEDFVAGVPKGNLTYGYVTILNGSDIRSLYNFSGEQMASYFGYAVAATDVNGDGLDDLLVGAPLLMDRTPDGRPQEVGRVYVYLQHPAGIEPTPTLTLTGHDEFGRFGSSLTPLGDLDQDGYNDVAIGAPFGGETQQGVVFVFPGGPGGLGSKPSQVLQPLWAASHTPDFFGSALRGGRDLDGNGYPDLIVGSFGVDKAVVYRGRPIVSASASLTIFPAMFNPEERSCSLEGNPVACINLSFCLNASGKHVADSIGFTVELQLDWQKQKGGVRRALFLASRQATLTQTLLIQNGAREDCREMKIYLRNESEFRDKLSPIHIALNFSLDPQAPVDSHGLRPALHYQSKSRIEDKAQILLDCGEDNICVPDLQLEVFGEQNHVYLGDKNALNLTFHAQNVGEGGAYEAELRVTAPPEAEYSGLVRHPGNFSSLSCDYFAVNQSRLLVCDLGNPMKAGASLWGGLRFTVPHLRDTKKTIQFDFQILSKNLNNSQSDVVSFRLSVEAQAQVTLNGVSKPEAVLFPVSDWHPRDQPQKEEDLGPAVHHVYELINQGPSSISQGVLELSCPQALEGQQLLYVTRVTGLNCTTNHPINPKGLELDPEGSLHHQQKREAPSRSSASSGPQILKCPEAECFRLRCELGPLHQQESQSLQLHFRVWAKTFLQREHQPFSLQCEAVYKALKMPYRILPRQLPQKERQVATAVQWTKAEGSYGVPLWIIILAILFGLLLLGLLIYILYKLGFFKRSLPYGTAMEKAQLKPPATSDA
UniProt P04004: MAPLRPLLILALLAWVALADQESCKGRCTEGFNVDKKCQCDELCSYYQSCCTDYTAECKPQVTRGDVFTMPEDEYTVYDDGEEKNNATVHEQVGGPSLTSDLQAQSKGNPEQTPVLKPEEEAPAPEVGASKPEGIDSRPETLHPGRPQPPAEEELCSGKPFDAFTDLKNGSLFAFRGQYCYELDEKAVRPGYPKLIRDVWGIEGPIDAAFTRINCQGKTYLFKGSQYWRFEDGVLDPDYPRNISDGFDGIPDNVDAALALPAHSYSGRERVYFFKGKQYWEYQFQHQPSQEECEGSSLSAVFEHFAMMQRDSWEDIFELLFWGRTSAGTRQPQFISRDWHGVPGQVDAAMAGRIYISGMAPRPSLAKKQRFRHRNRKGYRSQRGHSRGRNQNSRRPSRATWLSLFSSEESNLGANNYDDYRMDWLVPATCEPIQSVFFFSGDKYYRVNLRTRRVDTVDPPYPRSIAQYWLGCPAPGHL

Legend:
[1] = molecular target: alpha5Beta5 (α5β1) integrin heterodimer (UniProt P08648); experiment: ELISA, ED50 normalized to fibronectin
[2] = molecular target: alpha5Beta5 (α5β1) integrin heterodimer (UniProt P08648); experiment: ELISA
[3] = molecular target: alpha5Beta5 (α5β1) integrin heterodimer (UniProt P08648); experiment: binding assay, method not given
[4] = molecular target: alpha5Beta5 (α5β1) integrin heterodimer (UniProt P08648); experiment: ELISA (restated)

Row | Substance | binding [1] | binding [2] | binding [3] | binding [4]
1 | VTN-N variant (VTN-CTS), VTN62-478 (from UniProt P04004 62-478) (ligand) | binds | binds | – | –
2 | VTN62-292 T63G, V67N, F68P (from UniProt P04004 62-292) (ligand) | binds | binds | binds | binds
3 | Human Vitronectin Fragment 62-292 C-His (from UniProt P04004 62-292) (ligand) | binds | binds | – | –
4 | VTN62-292 T63G, V67S, F68P (from UniProt P04004 62-292) (ligand) | binds | binds | – | binds
